The list shows only some results of the screen, not a fair sample: it gathers tests that were run many times, whatever their T/C, doses with no T/C, and many T/C values between a quarter and a half above the control. Further doses and runs are listed elsewhere. T/C: endpoint of the treated group in % of that of the vehicle group. Some doses have a count of surviving animals in place of a T/C: the source files T/C as zero there, which appears to mark a toxic dose or a test without result, not a measured value. Some survivor counts are full or nearly so, which does not show that the dose was tolerated: the source hardly ever lists a survival T/C far under the control, and the zero likely stands for such cases as well. Survivors were counted at the toxicity check, usually on the fifth day, unless a day is given; later deaths do not show. Schedules are NCI's codes, read here as Q, the interval in days (D) or hours (H), X, the number of doses. Additions like (4×) give the number of equal values in this list. Some entries were tested several times; their values stand side by side, smallest first. For survival time, the PubChem record calls one and a half times the control and up active, and a quarter to a half above the control has no call in these data; cut-offs in other NCI protocols can differ. Some T/C values are followed by the survivors on the day toxicity was checked, most often the fifth; where none is given, no animal had died by that day.

The test system of this assay is BDF1 mice, B16 melanoma ip, median survival T/C. As to the kind of experiment: NCI In Vivo Anticancer Drug Screen. Data for tumor model B16 Melanoma (intraperitoneal) in B6D2F1 (BDF1) mice. The note with it: T/C endpoint: median survival time, higher T/C = longer survival. In a few lines:
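Tumor-bearing mice received test compound or vehicle. Survival or tumor size was then measured in both groups. The treated-group figure was divided by the control-group figure.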

Where [1] appears, read: dose: 37.5 mg/kg/injection, schedule: Q01DX009 (ip), vehicle: alcohol.
The mark [2] stands for this setting: dose: 200.0 mg/kg/injection, schedule: Q04DX003 (ip), vehicle: saline.
Setting [3] is: dose: 50.0 mg/kg/injection, schedule: Q01DX009 (ip), vehicle: Klucel (hydroxypropylcellulose) (HPC).
The mark [4] stands for this setting: dose: 100.0 mg/kg/injection, schedule: Q01DX009 (ip), vehicle: Klucel (hydroxypropylcellulose) (HPC).
[5] abbreviates: dose: 200.0 mg/kg/injection, schedule: Q01DX009 (ip), vehicle: Klucel (hydroxypropylcellulose) (HPC).
The mark [6] stands for this setting: dose: 50.0 mg/kg/injection, schedule: Q01DX009 (ip), vehicle: saline.
Setting [7] is: dose: 100.0 mg/kg/injection, schedule: Q01DX009 (ip), vehicle: saline.
The mark [8] stands for this setting: dose: 400.0 mg/kg/injection, schedule: Q01DX009 (ip), vehicle: saline.
[9] abbreviates: dose: 400.0 mg/kg/injection, schedule: Q01DX009 (ip), vehicle: Klucel (hydroxypropylcellulose) (HPC).
Where [10] appears, read: dose: 25.0 mg/kg/injection, schedule: Q01DX009 (ip), vehicle: saline.
The mark [11] stands for this setting: dose: 50.0 mg/kg/injection, schedule: Q01DX009 (ip), vehicle: saline with Tween-80.
Setting [12] is: dose: 100.0 mg/kg/injection, schedule: Q01DX009 (ip), vehicle: saline with Tween-80.
Setting [13] is: dose: 200.0 mg/kg/injection, schedule: Q01DX009 (ip), vehicle: saline with Tween-80.
Setting [14] is: dose: 200.0 mg/kg/injection, schedule: Q01DX009 (ip), vehicle: saline.

For `NC(=O)c1cc([N+](=O)[O-])c(Cl)c([N+](=O)[O-])c1Cl`, the survivor count (dose: 16.0 mg/kg/injection, schedule: Q01DX009 (ip), vehicle: Klucel (hydroxypropylcellulose) (HPC)) was 8 of 10.
Consider `CCCCNC(C)(C)C(SS)c1ccco1` (centres undefined), for which the survivor count is on record as 10 of 10 (dose: 24.0 mg/kg/injection, schedule: Q01DX009 (ip), vehicle: alcohol); 4 of 4 (dose: 24.0 mg/kg/injection, schedule: Q01DX009 (ip), vehicle: saline); 10 of 10 under setting [1]; 10 of 10 (dose: 55.0 mg/kg/injection, schedule: Q01DX009 (ip), vehicle: alcohol); 9 of 10 (dose: 75.0 mg/kg/injection, schedule: Q01DX009 (ip), vehicle: alcohol); 2 of 10 (dose: 150.0 mg/kg/injection, schedule: Q01DX009 (ip), vehicle: alcohol). Also, the T/C under setting [1] was 135 % of control.
`CN(C)CCCNC(=S)S`: the survivor count is reported as 0 of 10 (dose: 100.0 mg/kg/injection, schedule: Q04DX003 (ip), vehicle: saline); 0 of 10 under setting [2]; 0 of 10 (dose: 400.0 mg/kg/injection, schedule: Q04DX003 (ip), vehicle: saline).
As to `CC1(C)N=C(N)N=C(N)N1c1cccc(C#N)c1`, the survivor count runs as follows: (dose: 150.0 mg/kg/injection, schedule: Q01DX009 (ip), vehicle: saline) 0 of 10; under setting [2], 2 of 10; (dose: 225.0 mg/kg/injection, schedule: Q01DX009 (ip), vehicle: saline) 0 of 10; (dose: 335.0 mg/kg/injection, schedule: Q01DX009 (ip), vehicle: saline) 0 of 10.
Turning to `CCCCNC(C)(C)C(SSSC(c1ccco1)C(C)(C)NCCCC)c1ccco1` (centres undefined), the survivor count is given as 9 of 10 under setting [3], 10 of 10 under setting [4] and 3 of 10 under setting [5].
Regarding `CCCCCCOP(=O)(CCCCCC)OCCCCCC`, the survivor count (dose: 25.0 mg/kg/injection, schedule: Q01DX009 (ip), vehicle: Klucel (hydroxypropylcellulose) (HPC)) is listed as 6 of 6.
Regarding `N#CC1CCCC[N-]1.[NH-]CC[N-]CC[NH-].[Pt+4]` (centres undefined), the survivor count reads like this: under setting [6], 10 of 10; under setting [7], 10 of 10.
With `CC1CN(CCC#N)CC(C)O1` (centres undefined), the survivor count under setting [8] is recorded as 10 of 10.
As for `c1ccc(-c2cc(-c3ccccc3)cc(-c3ccccc3)c2)cc1`, the survivor count by setting is: under setting [4], 10 of 10; under setting [5], 9 of 10; under setting [9], 10 of 10.
As for `COP(=O)(OC)OCc1cnc(SC)nc1N`, under setting [10], the T/C was 125 % of control [9 of 10 alive].
Turning to `c1ccc([As+](c2ccccc2)(c2ccccc2)c2ccccc2)cc1`, under “dose: 7.5 mg/kg/injection, schedule: Q01DX009 (ip), vehicle: Klucel (hydroxypropylcellulose) (HPC)”, the survivor count is listed as 10 of 10.
`O.O.O=c1[nH]cc(CO)c(=O)[nH]1.[NH2-].[NH2-].[Pt+2]`: the T/C (dose: 12.5 mg/kg/injection, schedule: Q01DX009 (ip), vehicle: Klucel (hydroxypropylcellulose) (HPC)) is 136 % of control.
Consider `CCN(CC)CCNc1ccc(C)c2sc3ccccc3c(=O)c12`, for which the survivor count (dose: 200.0 mg/kg/injection, schedule: Q01DX009 (ip), vehicle: suspension in saline) was 10 of 10.
In the case of `CN(C)c1ccc(/C=C/c2cc[n+](C)cc2)cc1`, the survivor count (dose: 3.0 mg/kg/injection, schedule: Q04DX003 (ip), vehicle: saline with Tween-80) is 10 of 10.
On to `CCc1cc2c(cc1C(=O)CBr)C(C)(C)CCC2(C)C`, for which the survivor count under setting [11] is 10 of 10 and the survivor count under setting [12] is 7 of 10.
Turning to `O=NN(CCF)C(=O)NC1C(O)CCCC1O` (centres undefined), the T/C (dose: 3.75 mg/kg/injection, schedule: Q01DX001 (ip), vehicle: saline) is 126 % of control.
For `CC/C(=C(\c1ccccc1)c1ccc(OCCN(C)C)cc1)c1ccccc1`, the survivor count (dose: 400.0 mg/kg/injection, schedule: Q01DX009 (ip), vehicle: suspension in saline) is given as 10 of 10.
As for `N#Cc1ccc(/C=C/C(=O)c2ccccc2)cc1`, the survivor count under setting [9] is reported as 10 of 10.
Turning to `CCN(c1ccccc1C)S(=O)(=O)c1ccccc1`, the survivor count is, setting by setting: under setting [5], 10 of 10; under setting [9], 10 of 10.
As for `O=C1NNC(=O)NN1`, the T/C under setting [3] is 125 % of control.
As to `CCCCCCCCCCCCCCCCCC(=O)NNCCO`, the survivor count by setting is: under setting [12], 9 of 10; under setting [13], 1 of 10.
As for `CCOc1ncc([N+](=O)[O-])c(OCC)n1`, under setting [13], the T/C is 125 % of control.
Turning to `CN(C)CCCCNc1ccc(NCCCCN(C)C)c2c1C(=O)c1c(O)ccc(O)c1C2=O`, the survivor count reads like this: under setting [6], 10 of 10; under setting [7], 2 of 10; under setting [14], 0 of 10.
Regarding `Clc1ccc2c(c1)C(Nc1cc3c4ccccc4ccc3c3ccccc13)c1cc(Cl)cc(Cl)c1-2` (centres undefined), the survivor count runs as follows: (dose: 12.5 mg/kg/injection, schedule: Q01DX009 (ip), vehicle: saline with Tween-80) 6 of 6; (dose: 25.0 mg/kg/injection, schedule: Q01DX009 (ip), vehicle: saline with Tween-80) 6 of 6; under setting [11], 6 of 6; under setting [12], 6 of 6; under setting [13], 6 of 6; (dose: 400.0 mg/kg/injection, schedule: Q01DX009 (ip), vehicle: saline with Tween-80) 6 of 6. For the same molecule, under “dose: 800.0 mg/kg/injection, schedule: Q01DX009 (ip), vehicle: saline with Tween-80”, the survivor count was 6 of 6.
Take `Cc1cc2oc(=O)c3c(c2c(O)c1CN1CCOCC1)CCCC3`: under “dose: 512.0 mg/kg/injection, schedule: Q01DX009 (ip), vehicle: Klucel (hydroxypropylcellulose) (HPC)”, the survivor count is given as 4 of 5.
For `CCOC(OCC)C(=O)NNC(C)C`, the T/C under setting [10] was 135 % of control. The survivor count under setting [7] was 10 of 10.
As to `C1CN2CN3CCN(CN1C3)C2`, the T/C is 132 % of control under setting [6]; 134 and 139 % of control under setting [7]. Moreover, the survivor count under setting [14] is 9 of 10 (2×) and the survivor count under setting [8] is 0 of 10.
For `CN1CCC=C(CN2c3ccccc3Sc3ccc(Cl)cc32)C1`, the survivor count under setting [6] is on record as 10 of 10.
As to `COc1ccc(/C=C\C(=O)/C=C/c2ccc(OC)cc2)cc1`, the survivor count was 10 of 10 (dose: 200.0 mg/kg/injection, schedule: Q04DX003 (ip), vehicle: Klucel (hydroxypropylcellulose) (HPC)) and 9 of 10 (dose: 400.0 mg/kg/injection, schedule: Q04DX003 (ip), vehicle: Klucel (hydroxypropylcellulose) (HPC)).
As to `O=CNc1c(Cl)c(Cl)c2c(c1Cl)Cc1cc(Cl)ccc1-2`, the survivor count is 10 of 10 (dose: 0.37 mg/kg/injection, schedule: Q01DX009 (ip), vehicle: DMSO); 10 of 10 (dose: 0.75 mg/kg/injection, schedule: Q01DX009 (ip), vehicle: DMSO); 10 of 10 and 9 of 9 (dose: 1.5 mg/kg/injection, schedule: Q01DX009 (ip), vehicle: DMSO); 10 of 10 (dose: 3.0 mg/kg/injection, schedule: Q01DX009 (ip), vehicle: DMSO); 9 of 9 (dose: 6.0 mg/kg/injection, schedule: Q01DX009 (ip), vehicle: DMSO); 10 of 10 (dose: 25.0 mg/kg/injection, schedule: Q01DX009 (ip), vehicle: DMSO). Moreover, the survivor count by setting is: (dose: 50.0 mg/kg/injection, schedule: Q01DX009 (ip), vehicle: DMSO) 8 of 10; (dose: 100.0 mg/kg/injection, schedule: Q01DX009 (ip), vehicle: DMSO) 3 of 10.

These data come from PubChem BioAssay AID192 (DTP/NCI, 2004).
